These results are taken from US5605821, “Expression control sequences of the P-selectin gene” (Board of Regents of the University of Oklahoma).

Construct, isoform or probe ends are uncertain for at least one entry. Results from cells or extracts need not show a direct contact. For some assays here: A negative result means that nothing was seen under these conditions.

In data set [1] the test system is NF-kB family (complex II). The data set is described as follows: competition with a labelled probe. To be noted: unlabeled oligo inhibited complex II; protein in an extract; protein details: nuclear extracts.
Data set [2] relates to NF-kB family (complex II). The data set is described as follows: EMSA. To be noted: protein in an extract, protein details: nuclear extracts, label: 32P. For orientation: Mobility shift assays separate free from complexed probe on a gel.
Data set [3] has as its system RelA-containing heterodimers. Description: EMSA. To be noted: protein in an extract; protein details: cell extracts; label: 32P.

For the sequence “CGGCTGGGGATTCCCCATCT (double strand) [H-2Kb NF-kB element]”, the binding result in data set [1] is reported as “binds”.
As for “GGAAGGGGGTGACCCCTTGCCTC (double strand) [P-selectin 4642-4664]”, the binding result is “binds” in data set [2] (complex II, blocked by antisera to NFKB1 and NFKB2); “no binding” in data set [3].
With “CATCTTCCATGGAAGGGGGTGACCCCTTGCCTCTTGGCAAC (double strand) [P-selectin 4632-4672]”, the binding result is recorded as “binds” in data set [2] (complexes IIa and IIb); “no binding” in data set [3].
